PubChem BioAssay AID1259405, NCATS, 2018
Screen: 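Knock-downs that lift recombinant protein yield in hamster ovary cells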 (primary screen). Cell system: Chinese hamster CHO-K1 ovary cells with stable secreted eGFP expression. Reagent: single siRNA against mouse genes, 0.8 pmol siRNA per well (2 µl of 400 nM stock). Time to read-out: 3 days. Measured: 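Percent of the per-plate non-targeting control median for intracellular GFP per well by laser scanning cytometry and for cell viability by ATP luminescence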. Scale: GFP, % of control: higher = more GFP per well, higher productivity. Call rule: 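Called active when intracellular GFP, relative to negative control, is at or above 120%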.
Shown is an unselected part of about 50,000 deposited reagents. In the full data, about 4,000 (8%) were called active. 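Mouse siRNA library applied to hamster cells; one well for each siRNA.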 Unmarked entries are inactive. The numbers tell different reagents against one gene apart. Further read-outs or replicates are left out here.

GFP, % of control, by target gene and reagent
Tdg (GeneID 21665): #1 107; #2 76.6; #3 86.6
Dusp9 (GeneID 75590): #1 100; #2 63
Sf3b5 (GeneID 66125): #1 59.5; #2 46.1; #3 97.5
Etv2 (GeneID 14008): #1 94.5; #2 50.5; #3 87.6
Vmn1r42 (GeneID 113848): #1 104; #2 114; #3 78.9
Igf2 (GeneID 16002): #1 44.4; #2 64.3; #3 121 (active)
Actbl2 (GeneID 238880): #1 80.9; #2 67.4; #3 81.4
Ppp1r3f (GeneID 54646): #1 119; #2 80.5; #3 74.3
6030458C11Rik (GeneID 77877): #1 40.8; #2 82.9; #3 75.6
Lbp (GeneID 16803): #1 85.8; #2 87.8; #3 27.8
Psmd12 (GeneID 66997): #1 33; #2 63.2; #3 33.3
Capn6 (GeneID 12338): #1 125 (active); #2 110
B3gnt5 (GeneID 108105): #1 134 (active); #2 104; #3 105
Aen (GeneID 68048): #1 59; #2 100; #3 64.4
Sbf1 (GeneID 77980): #1 103; #2 66; #3 68.8
Gm5115 (GeneID 330602): #1 59.2; #2 102; #3 95.6
Pmp2 (GeneID 18857): #1 99.6; #2 119; #3 101
Sirpb1a (GeneID 320832): #1 118; #2 71.1; #3 76
Sox15 (GeneID 20670): #1 69.1; #2 93.7; #3 85.5
Ms4a10 (GeneID 69826): #1 62.4; #2 77.2; #3 26.2
Ces1d (GeneID 104158): #1 97; #2 101; #3 44.5
Pitpnm1 (GeneID 18739): #1 66.6; #2 95.7
Usp9x (GeneID 22284): #1 76.6; #2 54.5; #3 69.4
Lyzl4 (GeneID 69032): #1 104; #2 91.6; #3 62
Calm4 (GeneID 80796): #1 88.8; #2 69.8
Iqcc (GeneID 230767): #1 32; #2 93.5; #3 121 (active)
Mob3c (GeneID 100465): #1 81.1; #2 64.1; #3 98
Kdm1b (GeneID 218214): #1 46.5; #2 62.8; #3 92
Or14j2 (GeneID 258286): #1 42.4; #2 46.2; #3 61.5
Or8k40 (GeneID 258844): #1 127 (active); #2 67.9; #3 30.8

Laid out differently: entries from further up.
target gene,reagent,"GFP, % of control"
Ces1d (GeneID 104158),1,97
Ces1d (GeneID 104158),2,101
Ces1d (GeneID 104158),3,44.5
Pitpnm1 (GeneID 18739),1,66.6
Pitpnm1 (GeneID 18739),2,95.7
Usp9x (GeneID 22284),1,76.6
Usp9x (GeneID 22284),2,54.5
Usp9x (GeneID 22284),3,69.4
Lyzl4 (GeneID 69032),1,104
Lyzl4 (GeneID 69032),2,91.6
